Data on 1 substance can be found in PMC12220244.

By UniProt entry, the sequences of proteins in these tests, tags left out.
UniProt P17542: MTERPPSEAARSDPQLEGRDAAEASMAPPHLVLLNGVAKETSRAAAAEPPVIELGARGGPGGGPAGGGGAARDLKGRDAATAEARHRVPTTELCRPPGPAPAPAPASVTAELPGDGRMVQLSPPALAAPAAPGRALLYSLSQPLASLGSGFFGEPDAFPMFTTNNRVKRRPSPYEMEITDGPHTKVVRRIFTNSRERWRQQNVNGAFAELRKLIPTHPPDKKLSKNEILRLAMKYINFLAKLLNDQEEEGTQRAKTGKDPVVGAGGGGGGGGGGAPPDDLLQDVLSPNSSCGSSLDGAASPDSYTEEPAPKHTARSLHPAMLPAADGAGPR

In this experiment the target is T1, Myc-TRAF6 (1–288 aa) mutant (UniProt Q9Y4K3).
T1 sequence: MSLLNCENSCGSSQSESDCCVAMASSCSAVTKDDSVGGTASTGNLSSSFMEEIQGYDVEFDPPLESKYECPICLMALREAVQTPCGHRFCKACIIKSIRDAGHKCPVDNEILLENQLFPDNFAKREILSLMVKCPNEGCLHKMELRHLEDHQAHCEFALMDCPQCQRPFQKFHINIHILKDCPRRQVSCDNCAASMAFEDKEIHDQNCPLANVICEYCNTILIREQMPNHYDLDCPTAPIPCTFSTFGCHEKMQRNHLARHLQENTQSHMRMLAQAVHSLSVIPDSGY
As to the kind of experiment: co-IP; HEK293T co-transfected with Flag-TAL1 and Myc-His-TRAF6 constructs for 48 h; immunoprecipitation with anti-Flag or anti-Myc beads, immunoblot. On the technique in general: A western blot detects proteins with antibodies after separation by electrophoresis.

No constants are given. Whether binding was seen depends on the method and setting. Binding seen in cells or lysates may run through a third protein. Where a sequence is shown, tags or fusion partners need not be part of it.

For “Flag-tagged full-length (FL) TAL1 (from UniProt P17542 1-331)”, the binding entry is “no binding”.
